In publication PMC9578707:
Results are given in words; binding and its absence hold for the method and conditions named.

By UniProt entry, the sequences of proteins in these tests, tags left out. Residues count along the entry.
UniProt P10586, residues 30-1263: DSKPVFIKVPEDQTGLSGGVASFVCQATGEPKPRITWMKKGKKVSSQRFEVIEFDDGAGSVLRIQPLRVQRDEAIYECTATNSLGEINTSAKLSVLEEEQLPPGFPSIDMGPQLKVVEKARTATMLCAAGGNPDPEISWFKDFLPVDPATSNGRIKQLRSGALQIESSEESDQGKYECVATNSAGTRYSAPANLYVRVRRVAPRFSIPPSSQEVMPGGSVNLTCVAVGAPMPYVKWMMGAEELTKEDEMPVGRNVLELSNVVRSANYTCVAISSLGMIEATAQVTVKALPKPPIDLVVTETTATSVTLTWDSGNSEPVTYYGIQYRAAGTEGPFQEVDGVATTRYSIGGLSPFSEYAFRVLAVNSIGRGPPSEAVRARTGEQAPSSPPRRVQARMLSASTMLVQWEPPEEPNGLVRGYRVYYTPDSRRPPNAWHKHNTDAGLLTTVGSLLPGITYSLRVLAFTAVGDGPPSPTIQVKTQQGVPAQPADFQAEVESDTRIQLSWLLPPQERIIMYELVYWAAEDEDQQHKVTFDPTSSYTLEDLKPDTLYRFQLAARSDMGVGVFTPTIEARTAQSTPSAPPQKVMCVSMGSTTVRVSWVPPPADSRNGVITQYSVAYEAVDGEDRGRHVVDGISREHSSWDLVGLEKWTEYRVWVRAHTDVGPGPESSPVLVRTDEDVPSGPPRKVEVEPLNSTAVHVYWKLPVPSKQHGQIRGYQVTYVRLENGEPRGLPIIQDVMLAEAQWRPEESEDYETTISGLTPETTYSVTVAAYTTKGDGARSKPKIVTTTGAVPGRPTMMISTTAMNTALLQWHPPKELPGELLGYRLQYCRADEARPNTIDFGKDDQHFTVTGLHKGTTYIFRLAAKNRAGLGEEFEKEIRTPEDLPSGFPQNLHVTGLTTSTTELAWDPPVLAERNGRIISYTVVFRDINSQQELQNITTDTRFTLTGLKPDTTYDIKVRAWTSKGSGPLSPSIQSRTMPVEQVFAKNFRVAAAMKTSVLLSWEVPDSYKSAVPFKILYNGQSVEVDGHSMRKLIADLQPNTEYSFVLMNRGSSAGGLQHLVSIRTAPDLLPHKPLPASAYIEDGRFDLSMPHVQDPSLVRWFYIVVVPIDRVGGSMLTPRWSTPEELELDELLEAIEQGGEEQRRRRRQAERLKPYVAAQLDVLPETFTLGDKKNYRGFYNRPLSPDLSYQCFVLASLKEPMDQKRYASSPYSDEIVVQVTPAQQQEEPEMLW

Experiments:
Experiment in all cases: SPR; Biacore T100; biotinylated receptor ECD or hit protein captured on a streptavidin chip (~100-200 RU), non-biotinylated secreted ligand as analyte in twofold dilutions; HBS-P+ buffer; 1:1 Langmuir model or equilibrium fit; both purified
PTPRS ECD (human) = molecular target: T1, PTPRS ECD (human) (UniProt Q13332)
T1 sequence (chain, biotin where captured on the streptavidin chip): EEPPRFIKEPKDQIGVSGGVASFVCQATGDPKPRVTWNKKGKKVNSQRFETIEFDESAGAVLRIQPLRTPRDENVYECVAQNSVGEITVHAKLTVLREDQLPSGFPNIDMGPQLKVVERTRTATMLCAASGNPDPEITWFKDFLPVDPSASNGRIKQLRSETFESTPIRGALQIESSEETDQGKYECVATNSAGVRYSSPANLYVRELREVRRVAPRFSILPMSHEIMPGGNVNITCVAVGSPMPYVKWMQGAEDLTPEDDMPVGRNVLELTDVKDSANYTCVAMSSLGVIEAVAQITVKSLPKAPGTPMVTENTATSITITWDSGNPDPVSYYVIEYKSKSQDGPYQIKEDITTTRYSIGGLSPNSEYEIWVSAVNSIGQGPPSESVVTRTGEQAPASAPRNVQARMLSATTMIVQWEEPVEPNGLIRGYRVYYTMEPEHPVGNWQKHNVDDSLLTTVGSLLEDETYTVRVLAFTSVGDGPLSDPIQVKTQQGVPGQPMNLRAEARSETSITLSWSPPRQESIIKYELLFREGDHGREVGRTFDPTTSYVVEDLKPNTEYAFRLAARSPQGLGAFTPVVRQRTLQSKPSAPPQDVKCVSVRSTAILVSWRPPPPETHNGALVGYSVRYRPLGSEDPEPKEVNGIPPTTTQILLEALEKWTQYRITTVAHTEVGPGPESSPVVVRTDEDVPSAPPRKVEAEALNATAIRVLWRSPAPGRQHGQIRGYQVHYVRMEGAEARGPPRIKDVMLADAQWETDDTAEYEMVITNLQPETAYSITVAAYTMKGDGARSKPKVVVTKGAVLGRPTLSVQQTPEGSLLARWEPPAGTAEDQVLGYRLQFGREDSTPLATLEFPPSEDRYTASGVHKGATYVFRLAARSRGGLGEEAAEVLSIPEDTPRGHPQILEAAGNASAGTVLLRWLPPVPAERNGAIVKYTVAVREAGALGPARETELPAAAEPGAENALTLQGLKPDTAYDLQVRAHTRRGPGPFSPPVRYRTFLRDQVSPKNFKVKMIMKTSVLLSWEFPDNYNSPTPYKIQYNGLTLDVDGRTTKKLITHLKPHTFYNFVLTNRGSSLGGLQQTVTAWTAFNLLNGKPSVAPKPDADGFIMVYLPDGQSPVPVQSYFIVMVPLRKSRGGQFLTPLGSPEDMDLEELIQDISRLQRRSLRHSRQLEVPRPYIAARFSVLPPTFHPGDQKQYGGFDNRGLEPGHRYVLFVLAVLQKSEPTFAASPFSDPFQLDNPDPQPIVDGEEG

PTPRM ECD (human) = molecular target: T2, PTPRM ECD (human) (UniProt P28827)
T2 sequence (chain, biotin where captured on the streptavidin chip): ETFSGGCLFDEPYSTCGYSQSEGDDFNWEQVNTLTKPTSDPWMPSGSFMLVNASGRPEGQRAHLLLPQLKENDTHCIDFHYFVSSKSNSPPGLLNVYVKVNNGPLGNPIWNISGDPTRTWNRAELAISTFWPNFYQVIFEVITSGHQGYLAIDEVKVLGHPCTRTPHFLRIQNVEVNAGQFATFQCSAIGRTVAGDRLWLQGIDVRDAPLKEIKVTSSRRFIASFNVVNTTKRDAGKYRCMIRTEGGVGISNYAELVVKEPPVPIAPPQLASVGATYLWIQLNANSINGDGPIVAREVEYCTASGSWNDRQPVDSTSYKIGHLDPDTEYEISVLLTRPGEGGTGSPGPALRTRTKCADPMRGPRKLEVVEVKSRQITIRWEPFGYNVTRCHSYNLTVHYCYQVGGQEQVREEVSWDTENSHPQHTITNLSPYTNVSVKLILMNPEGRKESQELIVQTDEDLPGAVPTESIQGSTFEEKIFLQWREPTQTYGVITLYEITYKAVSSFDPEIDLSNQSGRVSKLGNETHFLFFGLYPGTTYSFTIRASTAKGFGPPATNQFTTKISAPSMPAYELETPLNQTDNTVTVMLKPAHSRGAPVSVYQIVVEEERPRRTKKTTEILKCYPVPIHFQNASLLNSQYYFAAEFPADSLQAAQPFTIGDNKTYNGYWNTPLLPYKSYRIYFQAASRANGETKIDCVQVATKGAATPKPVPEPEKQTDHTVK

PTPRF ECD (human) = PTPRF ECD (human) (UniProt P10586)
PTPRK ECD (human) = molecular target: T3, PTPRK ECD (human) (UniProt Q15262)
T3 sequence (chain, biotin where captured on the streptavidin chip): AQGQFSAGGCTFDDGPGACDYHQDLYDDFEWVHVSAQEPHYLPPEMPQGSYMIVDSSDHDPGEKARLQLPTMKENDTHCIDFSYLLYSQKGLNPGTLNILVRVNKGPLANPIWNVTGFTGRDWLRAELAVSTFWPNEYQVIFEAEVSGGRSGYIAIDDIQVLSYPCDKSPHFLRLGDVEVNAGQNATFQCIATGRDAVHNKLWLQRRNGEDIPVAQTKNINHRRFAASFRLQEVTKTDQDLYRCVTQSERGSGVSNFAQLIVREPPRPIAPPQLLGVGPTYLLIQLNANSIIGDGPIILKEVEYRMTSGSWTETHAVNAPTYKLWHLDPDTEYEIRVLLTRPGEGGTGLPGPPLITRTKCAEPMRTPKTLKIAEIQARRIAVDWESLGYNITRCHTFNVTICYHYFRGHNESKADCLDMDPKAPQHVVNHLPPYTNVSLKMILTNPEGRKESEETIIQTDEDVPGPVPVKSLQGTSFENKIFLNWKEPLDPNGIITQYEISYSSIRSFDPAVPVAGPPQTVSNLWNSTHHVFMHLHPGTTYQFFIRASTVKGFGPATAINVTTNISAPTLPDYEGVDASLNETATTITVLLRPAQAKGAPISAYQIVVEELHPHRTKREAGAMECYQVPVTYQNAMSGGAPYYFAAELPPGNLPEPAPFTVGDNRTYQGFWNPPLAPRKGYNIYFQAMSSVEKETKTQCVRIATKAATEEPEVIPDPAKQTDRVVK

- binding (PTPRS ECD (human)): no binding
- binding (PTPRM ECD (human)): no binding
- binding (PTPRF ECD (human)): no binding
- binding (PTPRK ECD (human)): no binding
B1: Osteocrin (ligand, UniProt P61366 28-133)
chain: VDVTTTEAFDSGVIDVQSTPTVREEKSATDLTAKLLLLDELVSLENDVIETKKKRSFSGFGSPLDRLSAGSVDHKGKQRKVVDHPKRRFGIPMDRIGRNRLSNSRG
modifications: biotin (biotinylated in vitro with BirA) where used on beads
